± gives the standard deviation of the averaged measurements. Most entries show no effect beyond the scatter of the controls.
Experiments:
Assay in all cases: level (log10 ratio to DMSO vehicle control); higher = higher biomarker level / cell amount than vehicle control
[1] = compound: O=P(O)(O)CCC(F)(F)C(F)(F)C(F)(F)C(F)(F)C(F)(F)C(F)(F)F [2-(Perfluorohexyl)ethylphosphonic acid]; details: 2200 nM; in DMSO
Protocol: (§1)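 BioMAP Diversity Plus panel of 12 human primary cell co-culture systems (3C, 4H, LPS, SAg, BT, BF4T, BE3C, CASM3C, HDF3CGF, KF3CT, MyoF, Mphg). Compounds were added 1 h before stimulation and left for 24 h (MyoF 48 h; BT 72 h for soluble read-outs or 6 d for IgG). Biomarkers were read by ELISA, cytotoxicity by SRB, PBMC viability and proliferation by Alamar Blue. Each well value was divided by the mean of 8 DMSO control wells on the same plate and log10 transformed; duplicate blinded samples were tested at 4 concentrations.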

Pentafluoropropionamide = compound: NC(=O)C(F)(F)C(F)(F)F [Pentafluoropropionamide]; details: 2200 nM; in DMSO
Protocol: as §1

[2] = compound: OCCCCC(F)(F)C(F)(F)C(F)(F)C(F)(F)F [4:4 Fluorotelomer alcohol]; details: 2200 nM; in DMSO
Protocol: as §1

[3] = compound: C=C(C)C(=O)OCC(F)(F)C(F)(F)C(F)(F)C(F)(F)C(F)(F)C(F)(F)C(F)(F)F; details: in DMSO
Protocol: as §1

[4] = compound: O=S(=O)(O)C(F)(F)C(F)(F)C(F)(F)C(F)(F)C(F)(F)C(F)(F)C(F)(F)C(F)(F)F [Perfluorooctanesulfonic acid]; details: 2200 nM; in DMSO
Protocol: as §1

Heptafluorobutyl iodide = compound: FC(F)(F)C(F)(F)C(F)(F)CI [Heptafluorobutyl iodide]; details: 2200 nM; in DMSO
Protocol: as §1

[5] = compound: C=CC(=O)OCC(F)(F)C(F)(F)C(F)(F)C(F)(F)C(F)(F)C(F)(F)C(F)(F)F [1H,1H-Perfluorooctyl acrylate]; details: 2200 nM; in DMSO
Protocol: as §1

[6] = compound: CO[Si](C)(CCC(F)(F)C(F)(F)C(F)(F)C(F)(F)C(F)(F)C(F)(F)F)OC [Dimethoxymethyl((perfluorohexyl)ethyl)silane]; details: in DMSO
Protocol: as §1

[7] = compound: O=S(=O)(OCC(F)(F)F)C(F)(F)C(F)(F)C(F)(F)C(F)(F)F [2,2,2-Trifluoroethyl perfluorobutanesulfonate]; details: 2200 nM; in DMSO
Protocol: as §1

[8] = compound: OCC(F)(F)C(F)(F)C(F)(F)C(F)(F)C(F)(F)C(F)F [1H,1H,7H-Dodecafluoro-1-heptanol]; details: 2200 nM; in DMSO
Protocol: as §1

[9] = compound: NC(=O)C(F)(F)C(F)(F)C(F)(F)C(F)F; details: in DMSO
Protocol: as §1

[10] = compound: O=S(=O)(F)C(F)(F)C(F)(F)C(F)(F)C(F)(F)C(F)(F)C(F)(F)C(F)(F)C(F)(F)F [Perfluorooctanesulfonyl fluoride]; details: 2200 nM; in DMSO
Protocol: as §1

[11] = compound: C=CC(F)(F)C(F)(F)C(F)(F)C(F)(F)C(F)(F)C(F)(F)C(F)(F)C(F)(F)C=C [1,8-Divinylperfluorooctane]; details: in DMSO
Protocol: as §1

[12] = compound: FC(F)(F)C(F)(F)C(F)(F)CC1CO1 [1H,1H-Heptafluorobutyl epoxide]; details: 2200 nM; in DMSO
Protocol: as §1

[13] = compound: O=C(O)C(F)(F)C(F)(F)C(F)F [4H-Perfluorobutanoic acid]; details: in DMSO
Protocol: as §1

[14] = compound: NS(=O)(=O)C(F)(F)C(F)(F)C(F)(F)C(F)(F)C(F)(F)C(F)(F)C(F)(F)C(F)(F)F [Perfluorooctanesulfonamide]; details: in DMSO
Protocol: as §1

[15] = compound: O=S(=O)(O)C(F)(F)C(F)(F)C(F)(F)C(F)(F)C(F)(F)C(F)(F)C(F)(F)C(F)(F)F [Potassium perfluorooctanesulfonate]; details: 2200 nM; in DMSO
Protocol: as §1

[16] = compound: COC(=O)C(F)(F)C(F)(F)OC(F)(C(F)(F)F)C(F)(F)OC(F)=C(F)F [Methyl perfluoro(3-(1-ethenyloxypropan-2-yloxy)propanoate)]; details: in DMSO
Protocol: as §1

Test System | level (log10) [1] | level (log10) (Pentafluoropropionamide) | level (log10) [2] | level (log10) ([3]; 740 nM) | level (log10) ([3]; 2200 nM) | level (log10) [4] | level (log10) (Heptafluorobutyl iodide) | level (log10) [5] | level (log10) ([6]; 740 nM) | level (log10) ([6]; 2200 nM) | level (log10) [7] | level (log10) [8] | level (log10) ([9]; 2200 nM) | level (log10) ([9]; 6700 nM) | level (log10) ([9]; 20000 nM) | level (log10) ([9]; 60000 nM) | level (log10) [10] | level (log10) ([11]; 740 nM) | level (log10) ([11]; 2200 nM) | level (log10) [12] | level (log10) ([13]; 2200 nM) | level (log10) ([13]; 6700 nM) | level (log10) ([13]; 20000 nM) | level (log10) ([13]; 60000 nM) | level (log10) ([14]; 2200 nM) | level (log10) ([14]; 6700 nM) | level (log10) ([14]; 20000 nM) | level (log10) [15] | level (log10) ([16]; 740 nM) | level (log10) ([16]; 2200 nM)
BE3C:CD54/ICAM-1 | 0.0125 ± 0.021 | -0.017 ± 0.0014 | 0.011 ± 0.052 | -0.0005 ± 0.015 | 0.0045 ± 0.0092 | 0.001 ± 0.02 | 0.007 | 0.017 | -0.0195 ± 0.005 | -0.0125 ± 0.0035 | 0.0015 ± 0.012 | 0.0005 ± 0.0092 | -0.005 ± 0.0071 | -0.006 ± 0.0042 | -0.002 ± 0.0042 | 0.0155 ± 0.016 | 0.007 ± 0.03 | 0.0055 ± 0.028 | 0.0045 ± 0.0064 | 0.0045 ± 0.0035 | 0.003 ± 0.023 | -0.0085 ± 0.0021 | -0.0245 ± 0.00071 | 0.0125 ± 0.033 | 0.0045 ± 0.0064 | -0.008 ± 0.016 | -0.001 ± 0.018 | 0.013 ± 0.03 | -0.0005 ± 0.035 | -0.014 ± 0.011
BF4T:uPA | -0.0225 ± 0.036 | -0.0035 ± 0.011 | -0.0025 ± 0.035 | 0.0015 ± 0.028 | -0.0245 ± 0.018 | 0.014 ± 0.045 | 0.0015 ± 0.0021 | 0.0055 ± 0.012 | 0.002 ± 0.038 | -0.011 ± 0.02 | 0 ± 0.027 | 0.004 ± 0.0042 | 0.0075 ± 0.016 | -0.001 ± 0.023 | -0.0145 ± 0.015 | -0.004 ± 0.021 | 0.006 ± 0.0028 | -0.004 ± 0.025 | -0.0185 ± 0.013 | -0.006 ± 0.028 | -0.0105 ± 0.029 | 0.002 ± 0.016 | 0.019 ± 0.0014 | 0.0105 ± 0.0021 | -0.0015 ± 0.012 | 0.014 ± 0.016 | 0.005 ± 0.034 | 0.017 ± 0.023 | 0.014 ± 0.057 | -0.007 ± 0.0071
4H:CCL2/MCP-1 | -0.0015 ± 0.061 | 0.0285 ± 0.043 | 0.0205 ± 0.025 | 0.0275 ± 0.069 | -0.0305 ± 0.018 | 0.0115 ± 0.066 | -0.01 ± 0.02 | -0.0025 ± 0.021 | 0.011 ± 0.062 | -0.046 ± 0.0014 | -0.02 ± 0.023 | -0.0015 ± 0.057 | -0.004 ± 0.088 | -0.0155 ± 0.032 | -0.039 ± 0.031 | 0.029 ± 0.04 | 0.0115 ± 0.028 | 0.0225 ± 0.042 | -0.0095 ± 0.019 | -0.0115 ± 0.066 | -0.0065 ± 0.05 | -0.066 ± 0.047 | -0.0555 ± 0.029 | -0.0005 ± 0.028 | -0.035 ± 0.11 | -0.093 ± 0.023 | -0.124 ± 0.0021 | 0.033 ± 0.061 | 0.0275 ± 0.049 | 0.0105 ± 0.0035
CASM3C:Serum Amyloid A | 0.0065 ± 0.025 | 0.0145 ± 0.012 | 0.033 ± 0.075 | 0.0095 ± 0.011 | -0.0055 ± 0.0035 | 0.036 ± 0.079 | -0.004 ± 0.034 | 0.0275 ± 0.011 | -0.001 ± 0.05 | -0.0205 ± 0.00071 | -0.016 ± 0.12 | -0.0165 ± 0.012 | -0.0115 ± 0.12 | -0.054 ± 0.071 | -0.0535 ± 0.026 | -0.003 ± 0.024 | 0.0305 ± 0.0021 | 0.005 ± 0.031 | 0.006 ± 0.025 | -0.0145 ± 0.029 | -0.0305 ± 0.037 | -0.056 ± 0.038 | -0.083 ± 0.055 | -0.0715 ± 0.11 | 0.0105 ± 0.0035 | 0.0055 ± 0.028 | 0.012 ± 0.047 | 0.039 ± 0.079 | -0.0155 ± 0.025 | 0.0265 ± 0.016
HDF3CGF:CXCL8/IL-8 | -0.0015 ± 0.019 | -0.001 ± 0.0028 | 0.0015 ± 0.015 | 0.006 ± 0.014 | 0.001 ± 0.0099 | 0.0005 ± 0.005 | 0.0005 ± 0.0035 | 0 ± 0.011 | 0.008 | -0.0025 ± 0.0021 | 0.004 ± 0.0099 | 0.0025 ± 0.028 | 0.0015 ± 0.00071 | -0.0085 ± 0.0035 | 0.0015 ± 0.0078 | 0.0045 ± 0.018 | -0.002 ± 0.02 | -0.0025 ± 0.0021 | -0.009 ± 0.016 | 0.0065 ± 0.028 | -0.001 ± 0.013 | 0.001 ± 0.0014 | 0.0025 ± 0.0078 | 0.0095 ± 0.023 | 0.015 | 0.004 ± 0.0085 | -0.204 ± 0.11 | 0.002 ± 0.0057 | 0 ± 0.0071 | 0.012 ± 0.0099
